Results deposited as PubChem BioAssay AID504808 (Drosophila RNAi Screening Center, 2011)
The deposit covers about 21,000 reagents; shown is an unselected part of those that have a named target and a result. Over the whole deposit, 18 (0.084%) got an active call. 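Raw counts without plate normalisation, one of two replicates; the ratio scores behind the calls were not deposited.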 Unmarked entries are inactive. The record does not give: the amount of reagent, the time to read-out.

Purpose: 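Fly genes required to hold E2F transcription in check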 (primary screen)
Cells: Drosophila S2 cells
Knock-down reagent: long dsRNA against Drosophila genes
Measured: 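Dual luciferase plate measurements; E2F-specific signal taken as firefly over Renilla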
Scale: E2F firefly: higher = more E2F reporter activity; Renilla normaliser: higher = more normaliser reporter signal
Call rule: 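Called active if the normalised E2F reporter went up by over 50%; the cutoff is arbitrary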

Target gene	dsRNA	E2F firefly, rep 1	Renilla normaliser, rep 1
Cyp4p3 (Cytochrome P450 4p3)	DRSC07374	1.46e5	4765
fus (fusilli)	DRSC05569	1.33e5	5104
fus (fusilli)	DRSC07107	86090	3421
bora (aurora borealis)	DRSC10744	69068	3144
CG33013 (retired record)	DRSC06286	89862	4066
CG11349	DRSC08179	87042	3826
CG1958	DRSC18196	1.02e5	5515
CSN3 (COP9 signalosome subunit 3)	DRSC11859	82633	5080
TwdlC (TweedleC)	DRSC14749	1.12e5	5996
CG31191	DRSC13455	88564	2686
CG31191	DRSC15214	1.31e5	7351
CG31191	DRSC15215	1.17e5	6099
Actn (alpha actinin)	DRSC17724	1683	872
CG4218	DRSC01939	1.01e5	4743
CG31142	DRSC13647	84448	2723
CG31928	DRSC00293	84966	4374
sbb (scribbler)	DRSC05723	1.65e5	6408
sbb (scribbler)	DRSC07676	1.67e5	5888
CG13921	DRSC08390	69336	3119
Vsx2 (Visual system homeobox 2)	DRSC17397	70538	2098
Vsx2 (Visual system homeobox 2)	DRSC18087	1.02e5	4623
Vsx2 (Visual system homeobox 2)	DRSC18088	1.21e5	5078
Vsx2 (Visual system homeobox 2)	DRSC18089	1.20e5	4837
CG13048	DRSC09929	1.71e5	7770
mud (mushroom body defect)	DRSC19019	75990	2838
Dp1 (Dodeca-satellite-binding protein 1)	DRSC07403	59285	2838
CG11686	DRSC14350	1.14e5	6237
msopa (male-specific opa containing gene)	DRSC11895	74313	7784
ppk29 (pickpocket 29)	DRSC04205	1.12e5	4638
CG2124	DRSC18208	1.19e5	5015
ACXC (Adenylyl cyclase X C)	DRSC00846	94482	4458
Gen (XPG-like endonuclease)	DRSC09679	74211	3294
Rcd1 (Reduction in Cnn dots 1)	DRSC07116	3789	242
CG15820	DRSC08480	78356	3432

Part of the list above in another layout:
Target gene | dsRNA | E2F firefly, rep 1 | Renilla normaliser, rep 1
CG11349 | DRSC08179 | 87042 | 3826
CG1958 | DRSC18196 | 1.02e5 | 5515
CSN3 (COP9 signalosome subunit 3) | DRSC11859 | 82633 | 5080
TwdlC (TweedleC) | DRSC14749 | 1.12e5 | 5996
